Data from paper PMC5487381, “Thioredoxin A Is Essential for Motility and Contributes to Host Infection of Listeria monocytogenes via Redox Interactions” (Frontiers in Cellular and Infection Microbiology, 2017).

Assays:
[1] = biological target: GmaR, anti-repressor of MogR (Listeria monocytogenes EGD-e); test: ITC; TrxA, TrxAox or TrxA active-site mutants (80-200 uM) in the syringe, PrfA, MogR, GmaR or MogR and GmaR (8-20 uM) in the cuvette; 25 C; 25 mM Tris-HCl pH 7.5, 100 mM NaCl; 15 uL injections, 300 s spacing; 1:1 binding model; both purified
[2] = biological target: MogR, the flagellar gene transcriptional repressor (Listeria monocytogenes EGD-e); test: as above

B1: Listeria monocytogenes thioredoxin A (TrxA) (enzyme, Listeria monocytogenes EGD-e, UniProt P0A4L3 1-103, looked up)
chain: MVKEITDATFEQETSEGLVLTDFWATWCGPCRMVAPVLEEIQEERGEALKIVKMDVDENPETPGSFGVMSIPTLLIKKDGEVVETIIGYRPKEELDEVINKYV
notes: Thioredoxin A (TrxA, Lmo1233) of L. monocytogenes EGD-e, full-length ORF; pET30a(+) may add further vector-encoded residues between the His tag and the ORF; also called Lmo1233
**Q.** Which results are given for B1?
**A.** binding [1]: binds weakly; binding [2]: binds

No constants are given. Whether binding was seen depends on the method and setting. Binding calls can cover weak binding; strength is not graded here.
